PubChem BioAssay AID652259 – Drosophila RNAi Screening Center, 2013
Purpose: 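Identify new Wingless signalling regulators in fly cells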 (primary screen). System: Drosophila clone 8 imaginal disc epithelial cells. Reagent: long dsRNA against Drosophila genes. Treatment: pathway stimulated by co-transfected Wingless expression plasmid. Measured: 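Dual luciferase reads per well after Wingless plasmid stimulation: reporter firefly light and Renilla control light; activity is firefly divided by Renilla, a ratio not deposited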. Scale: firefly reporter light: higher = more Wg reporter light, before normalisation; Renilla control light: higher = more transfected or surviving cells. Hit rule: 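a knock-down is a candidate when at least two out of four statistical tests show it departing from its plate mean; one test alone signals a weak candidate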. Calls: active = candidate regulator (raises or lowers reporter); inactive = not a candidate.
The screen tested about 22,000 reagents; this is an unselected part of those with a known target gene and a result. In the full data, 233 (1.1%) are marked active. 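Light values are raw, unnormalised plate reads; the ratio scores behind the reporter calls were not deposited.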 The numbers tell different reagents against one gene apart. A plus sign joins genes that one reagent is predicted to hit. The record does not give: the amount of reagent, the time to read-out, the dose of the treatment.

no.	Target gene	dsRNA no.	firefly reporter light, replicate 1	firefly reporter light, replicate 2	Renilla control light, replicate 1	Renilla control light, replicate 2	Call
1	Os-C	1	18755		6252		inactive
2	lectin-29Ca	1	2085	3024	762	2215	inactive
3	CG6592	1	1089	8336	664	2792	inactive
4	CG12877	1	10445		2869		inactive
5	He + NimB5	1	7.95e5	8.94e5	4.38e5	3.29e5	inactive
6	CG43090	1	2843		1017		inactive
7	Sulf1	1	3456		1673		inactive
8	Sulf1	2	14230		3773		inactive
9	CG12024	1	17204		4728		inactive
10	Cp19	1	1035	7300	816	2570	inactive
11	CG6607	1	23574		17354		inactive
12	CG6878	1	5099		2138		inactive
13	Rab26	1	1505		299		inactive
14	Rab26	2	15888		4403		inactive
15	Rab26	3	16054		5164		inactive
16	Rrp45	1	17185		6794		inactive
17	CG14238	1	8280		2355		inactive
18	CG14332	1	18064		4824		inactive
19	clu	1	11286		2867		inactive
20	wrapper	1	9348		1955		inactive
21	mthl12	1	2772		1429		inactive
22	indra	1	14437		3789		inactive
23	Cog6	1	11660		2901		inactive
24	CG13404	1	17319		8880		inactive
25	CG11714	1	4674		2059		inactive
26	Rh5	1	4641		1160		inactive
27	CG17378	1	2512	3696	1264	1845	inactive
28	CG2100	1	7584		2567		inactive
29	CG6296	1	1552	6210	930	1895	inactive
30	CR40441	1	4.80e5	5.63e5	1.92e5	1.78e5	inactive
31	Mpp6	1	2072	4768	576	1965	inactive
32	hb	1	3609		1291		inactive
33	hgo	1	2914	6599	1254	2493	inactive

A stretch of the results above:
no.	Target gene	dsRNA no.	firefly reporter light, replicate 1	firefly reporter light, replicate 2	Renilla control light, replicate 1	Renilla control light, replicate 2	Call
8	Sulf1	2	14230		3773		inactive
9	CG12024	1	17204		4728		inactive
10	Cp19	1	1035	7300	816	2570	inactive
11	CG6607	1	23574		17354		inactive
12	CG6878	1	5099		2138		inactive
13	Rab26	1	1505		299		inactive
14	Rab26	2	15888		4403		inactive
15	Rab26	3	16054		5164		inactive

Continued:
no.	Target gene	dsRNA no.	firefly reporter light, replicate 1	firefly reporter light, replicate 2	Renilla control light, replicate 1	Renilla control light, replicate 2	Call
34	CG4271	1	3049	8778	1593	3549	inactive
35	CG12674	1	1852	5270	984	2464	inactive
36	Treh	1	12774		3360		inactive
37	Pex13	1	14824		4442		inactive
38	CG9500	1	2084	4948	248	2201	inactive
39	St4	1	6448		1737		inactive
40	CG9861	1	12016		4162		inactive
41	CG8519	1	1604	5673	1370	2692	inactive
42	CG34229	1	7914		2595		inactive
43	ttm2	1	5051		2198		inactive
44	CG9986	1	3244	5433	1188	2592	inactive
45	CG6153	1	9941		4106		inactive
46	TMEM216 + CG11760	1	8706		3634		inactive
47	CG31259	1	12202		2553		inactive
48	CR43999 (retired record)	1	20915		18299		inactive
49	CG34427	1	1514	4896	1122	2134	inactive
50	CG14442	1	1770	10184	436	1750	inactive
51	Irbp18	1	9802		3778		inactive
52	CG12688 (retired record)	1	17867		7812		inactive
53	CG12688 (retired record)	2	22283		7543		inactive
54	TyrRS	1	5740		1988		inactive
55	Septin1	1	21136		11668		inactive
56	Cyp6a17	1	18452		5181		inactive
57	nSMase	1	7547		3141		inactive
58	CG5339	1	9312		3302		inactive
59	CG15923	1	2422	4075	1184	1575	inactive
60	CG7849	1	2934	7050	788	2587	inactive
61	Sec15	1	28550		7645		inactive
62	Ttc26	1	3573		1856		inactive
63	cyp33	1	16730		4250		inactive
64	CG6788 + CR32496	1	4.23e5	4.67e5	2.19e5	1.98e5	inactive
65	Drep2	1	8684		2403		inactive
66	Uch-L5	1	4970		1608		inactive
67	wor	1	3404	4866	1043	2864	inactive
68	CG15617	1	5510		2656		inactive
69	CG34228	1	18755		15680		inactive
70	CG5543	1	8657		3204		inactive
71	CG5321	1	26883		11062		inactive
72	CG5321	2	4.95e5	5.04e5	2.36e5	2.86e5	inactive
73	gry	1	4424		1989		inactive
74	gry	2	6311		3016		inactive
75	CG4074	1	18520		4657		inactive
76	Smyd4-1	1	8475		2845		inactive
77	Pros28.2 (retired record)	1	11888		4368		inactive
78	Obp47a	1	3648	8896	1008	3584	inactive
79	CARPB	1	4428	11633	1465	3035	inactive
80	CARPB	2	31360		11331		inactive
81	CG10214	1	3709	6912	1655	2000	inactive
82	CG13622	1	12849		10724		inactive
83	lncRNA:noe	1	7.85e5	8.79e5	3.18e5	3.79e5	inactive
84	CG18659	1	2761	6787	820	3340	inactive
85	CG34224	1	14400		11753		inactive
86	RpL31	1	4352	11123	955	2976	inactive
87	CG8541	1	1260	8891	1096	3635	inactive
88	CG12911	1	2208	6357	769	2504	inactive
89	Khc-73	1	16032		4265		inactive
90	dtn	1	18048		7792		inactive
91	Ube3a	1	2936		1428		inactive
92	cid	1	15533		12916		inactive
93	cid	2	6880		2999		inactive
